Percent effect of library compounds

The chains behind the UniProt entries cited, without tags or fusion partners. Residues count along the entry.
UniProt P9WPC5, whole entry: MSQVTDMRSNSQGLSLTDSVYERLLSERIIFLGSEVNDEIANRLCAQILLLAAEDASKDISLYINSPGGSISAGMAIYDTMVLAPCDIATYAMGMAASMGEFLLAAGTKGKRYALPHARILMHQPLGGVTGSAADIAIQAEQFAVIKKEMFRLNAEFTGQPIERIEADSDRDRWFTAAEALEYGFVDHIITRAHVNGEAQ
UniProt P9WPC3, whole entry partner: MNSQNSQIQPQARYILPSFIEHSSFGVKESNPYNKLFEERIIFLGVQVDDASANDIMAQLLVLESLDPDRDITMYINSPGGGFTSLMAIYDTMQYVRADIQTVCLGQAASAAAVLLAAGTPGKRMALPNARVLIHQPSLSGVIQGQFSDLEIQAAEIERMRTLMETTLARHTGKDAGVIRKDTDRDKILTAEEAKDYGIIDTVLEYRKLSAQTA
UniProt Q8IDJ8, 1-583: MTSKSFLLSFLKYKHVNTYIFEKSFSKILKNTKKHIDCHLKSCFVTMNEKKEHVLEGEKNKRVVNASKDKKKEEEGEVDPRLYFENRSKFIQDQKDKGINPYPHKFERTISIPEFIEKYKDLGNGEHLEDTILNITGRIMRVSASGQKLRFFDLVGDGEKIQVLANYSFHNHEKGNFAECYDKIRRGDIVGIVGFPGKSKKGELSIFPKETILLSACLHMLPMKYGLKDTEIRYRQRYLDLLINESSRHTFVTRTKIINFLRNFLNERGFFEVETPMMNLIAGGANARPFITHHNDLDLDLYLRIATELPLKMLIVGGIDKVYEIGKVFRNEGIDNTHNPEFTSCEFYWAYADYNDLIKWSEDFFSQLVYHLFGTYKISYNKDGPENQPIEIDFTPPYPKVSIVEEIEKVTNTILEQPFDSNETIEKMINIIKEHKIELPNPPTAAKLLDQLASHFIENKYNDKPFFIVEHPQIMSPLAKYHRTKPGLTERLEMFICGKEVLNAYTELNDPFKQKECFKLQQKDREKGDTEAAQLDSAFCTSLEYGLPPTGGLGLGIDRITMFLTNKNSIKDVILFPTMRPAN
UniProt P9WFT3, whole entry: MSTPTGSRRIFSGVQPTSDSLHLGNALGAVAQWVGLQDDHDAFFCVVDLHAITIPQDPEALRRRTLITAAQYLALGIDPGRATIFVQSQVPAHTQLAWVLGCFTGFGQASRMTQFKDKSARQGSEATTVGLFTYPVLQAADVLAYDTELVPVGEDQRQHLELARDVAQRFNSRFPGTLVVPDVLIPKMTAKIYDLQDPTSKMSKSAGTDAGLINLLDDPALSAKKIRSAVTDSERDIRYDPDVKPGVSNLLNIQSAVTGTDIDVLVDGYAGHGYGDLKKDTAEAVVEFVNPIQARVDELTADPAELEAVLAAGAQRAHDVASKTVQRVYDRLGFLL
UniProt A4I591, 1-473: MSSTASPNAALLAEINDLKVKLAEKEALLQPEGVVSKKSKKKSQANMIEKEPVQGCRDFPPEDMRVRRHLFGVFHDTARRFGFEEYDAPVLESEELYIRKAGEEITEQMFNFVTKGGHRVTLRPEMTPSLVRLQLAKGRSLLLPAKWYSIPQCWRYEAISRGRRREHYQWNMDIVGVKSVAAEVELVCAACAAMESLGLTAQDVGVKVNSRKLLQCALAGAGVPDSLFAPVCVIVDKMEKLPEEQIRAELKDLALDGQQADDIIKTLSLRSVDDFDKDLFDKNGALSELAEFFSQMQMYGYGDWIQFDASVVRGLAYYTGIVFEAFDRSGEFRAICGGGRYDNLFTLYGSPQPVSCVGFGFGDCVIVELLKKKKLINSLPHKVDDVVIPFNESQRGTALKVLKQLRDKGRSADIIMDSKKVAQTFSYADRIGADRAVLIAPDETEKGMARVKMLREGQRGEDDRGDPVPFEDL
UniProt Q4DA54, 1-478: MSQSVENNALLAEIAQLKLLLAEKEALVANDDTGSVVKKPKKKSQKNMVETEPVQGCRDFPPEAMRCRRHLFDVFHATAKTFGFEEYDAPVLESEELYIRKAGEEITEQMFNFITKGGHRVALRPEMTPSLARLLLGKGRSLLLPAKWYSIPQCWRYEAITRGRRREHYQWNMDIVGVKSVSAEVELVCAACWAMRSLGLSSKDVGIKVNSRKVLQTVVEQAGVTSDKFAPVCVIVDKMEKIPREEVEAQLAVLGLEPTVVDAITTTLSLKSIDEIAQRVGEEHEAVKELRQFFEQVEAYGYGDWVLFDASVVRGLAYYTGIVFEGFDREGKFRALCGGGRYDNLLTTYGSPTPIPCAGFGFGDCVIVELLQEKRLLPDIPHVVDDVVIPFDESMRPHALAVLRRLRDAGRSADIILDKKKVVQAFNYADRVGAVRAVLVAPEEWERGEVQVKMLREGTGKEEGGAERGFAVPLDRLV

ClpP1P2: 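ClpP1P2, Mycobacterium tuberculosis (UniProt P9WPC5 and UniProt P9WPC3). Protease assay of ClpP1P2, read by the AMC dye that it sets free. Tested at 50 µM. Higher reads as stronger inhibition, judged from the few compounds that gave an IC50. Most other retested compounds had strongly negative values. Of about 69,000 compounds tested this way, about 10 (0.015%) reached 50% or more in at least one test.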
PfKRS1: 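Lysine-tRNA ligase, Plasmodium falciparum 3D7 (UniProt Q8IDJ8). Enzyme assay of the cytosolic lysyl-tRNA synthetase in 384-well plates, read by luminescence. Tested at 30 µM. Direction is inferred from only a few compounds that gave an IC50; most scored high, so higher reads as stronger inhibition. About 69,000 compounds were tested under these conditions; 0.071% (about 49) showed 50% or more at least once.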
MtTrpRS: 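Tryptophan-tRNA ligase, Mycobacterium tuberculosis (UniProt P9WFT3). Enzyme assay of tryptophanyl-tRNA synthetase; the read-out is not stated. Tested at 10 µM. Higher most likely means stronger inhibition; the record gives no direction and few retests gave an IC50. Of about 65,000 compounds tested this way, about 64 (0.098%) reached 50% or more in at least one test.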
LiHisRS: 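Histidine-tRNA ligase, Leishmania infantum (UniProt A4I591). Enzyme assay of histidyl-tRNA synthetase; the read-out is not stated. Compounds at 30 µM. Direction is inferred from retests: higher values go with stronger inhibition. The assay is labelled LdHisRS but filed under L. infantum. About 69,000 compounds were tested under these conditions; 0.6% (about 410) showed 50% or more at least once.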
TcHisRS: 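Histidine-tRNA ligase, Trypanosoma cruzi CL Brener (UniProt Q4DA54). Enzyme assay of histidyl-tRNA synthetase; the read-out is not stated. Tested at 30 µM. Direction is inferred from retests: higher values go with stronger inhibition. About 69,000 compounds were tested under these conditions; 0.045% (about 31) showed 50% or more at least once.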
Leishmania in macrophages: 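Cell assay of Leishmania donovani living inside macrophages; the read-out is not stated. Compounds at 30 µM. Direction is inferred from retests: higher values go with stronger inhibition. Of about 69,000 compounds tested this way, about 1,000 (1.5%) reached 50% or more in at least one test.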

Each number is a percent effect as filed.
The record does not define 0% and 100%; most values in the screen are far below 50% and negative numbers occur (in some assays of this library far below -100).
Compounds were drawn at random from those tested, without regard to their results.
Two or more numbers in one place are separate tests of the same structure; such repeats can differ widely.
A dash means the value is not listed here; it may have been measured.

structure,ClpP1P2,PfKRS1,MtTrpRS,LiHisRS,TcHisRS,Leishmania in macrophages
COCC(=O)NC(Cc1cc(N(C)C)nc(C2CC2)n1)c1ccccc1 (stereo not shown),-44.37,0.439,-2.388,4.027,0.8571,-5.125
CC(=O)OCc1ccc(CN2CCCCCC2c2cc(C)no2)o1 (stereo not shown),20.5,-0.8205,22.12,22.76,6.844,11.02
Cc1ncsc1C(=O)NC1CCN(CCC#N)CC1,-8.53,-4.485,57.5,0,2.882,-18.61
[H][C@]12CN(Cc3ccco3)C[C@@]1([H])OCCN(S(=O)(=O)C1CC1)C2,-,-,-,-,-,1.322
CCCC(NC(=O)c1cc(C)n(C2CC2)c1C)c1nnn[nH]1 (stereo not shown),2.757,-0.2225,3.552,16.5,1.245,2.645
O=C(COC[C@@]12CCC[C@@H]1CN(C1CCCC1)C2)N1CCCC1,-4.302,4.483,-,6.364,2.116,-
O=C(O)C(F)(F)F.O=C(O)C(F)(F)F.[H][C@]12C[C@@H](CN3CCCC3)N(c3nccs3)[C@@]1([H])CCN(C(=O)CC)C2,-,-,-,-,-,35.64
COc1cccc(CN2CC3(CCNCC3)CCC2=O)c1OC,0.2001,3.62,-3.023,8.571,5.102,-1.899
Cn1ncc(C(=O)O)c1C(=O)Nc1nc2ccccc2s1,-7.459,-3.922,-4.896,-2.381,-0.9901,17.36
Cc1cc(-c2cnn(CCNC(=O)c3snnc3C)c2C2CC2)on1,4.459,4.876,-,14.43,6.667,-7.292 and 11.38
Cc1ccnn1CCC(=O)N1CCCC[C@]2(C)NC(=O)CCC[C@H]12,2.819,-1.044,3.03,10,8.046,-
CN(Cc1cccnc1)Cc1cncc2c1CCN(Cc1ccoc1)C2,-21.66,4.129,-,0.9091,2.116,-
COc1ncccc1CNC(=O)Nc1ccc(N(C)C)nc1,-34.73,-1.286,-5.366,11.54,1.143,24.95
CCOCC1CN(S(=O)(=O)N(C)C)Cc2cnn(C)c21.O=C(O)C(F)(F)F (stereo not shown),-,-,-,-,-,6.571
Cc1ccc2c(c1)OCCCC2NC1CCN(C)CC1 (stereo not shown),2.311,-0.9471,-4.562,10.34,2.618,20.51
CCc1ncncc1C(=O)N1CCN(Cc2cscn2)CC1,-20.43,1.384,1.101,0.8929,2.312,-35.58
CC(C)c1n[nH]c(C2CN(C(=O)c3cc(Cl)c[nH]3)CCO2)n1 (stereo not shown),-6,0.9128,-0.2946,2.632,2.89,8.762
Cn1cc(C(C)(O)CNC(=O)c2cc(Br)cn2C)cn1 (stereo not shown),-1.64,2.964,3.109,25.53,6.358,4.734
CC(C)(C)SCC(=O)NCCc1csc(N2CCCC2)n1,-9.75,3.888,2.39,18.75,16.67,14.16
CC(C)NC(=O)NCCCOC1CCOCC1,-0.8025,0.01205,0.3096,14.29,7.792,17.62
CN1[C@H](Cn2cncn2)C[C@@H]2CN(Cc3ccsc3)CC[C@@H]21,13.27,3.769,-4.988,20,6.186,-
O=C1NC2(CCCN(C(=O)CCn3cncn3)C2)Oc2ccccc21 (stereo not shown),-3.948,0,-8.569,10.14,7.576,39.17
COCC[C@]1(O)CCN(C2CCN(C(=O)C3CCC3)CC2)C[C@H]1C,-3.187,4.593,0.122,4.918,3.863,22.07
O=C(O)C(F)(F)F.[H][C@@]12CCN(Cc3ccc4c(c3)OCO4)C[C@]1([H])[C@H](C(=O)N(C)C)CCO2,-,-,-,-,-,27.65
CCNc1ccnc(NC2CCN(CC(N)=O)CC2)n1,10.15,2.45,9.636,21.21,-3.226,-28.11
COCC1CN(C(=O)Cc2cccs2)Cc2nnn(C)c21 (stereo not shown),-8.019,1.828,0.2766,10.26,3.659,3.271
CCN(Cc1cccnc1)C1CCN(c2ccccc2)C1=O (stereo not shown),-3.319,1.633,-0.9202,0,4.972,19.39
CCc1nc(CC(=O)N2CCCC2c2c(C)nn(C)c2OC)cs1 (stereo not shown),-21.79,-0.4917,-0.9737,1.739,1.149,-16.37
Cc1nn(C)c(N(C)C)c1CNCc1ccc(Cn2cncn2)cc1,21.8,0.4104,4.728,7.826,-1.69,-11.86
O=C(c1sccc1C1CC1)N1CCCN(Cc2cscn2)CC1,-43.36,0.4064,-4.138,22.12,14.87,0.2406
Cc1cnn(CCNCC(=O)NC(C)c2ccc3c(c2)OCCO3)c1 (stereo not shown),-10.46,-1.031,-0.8763,15.65,5.747,10.8
CC(CNC1CCN(Cc2ccncc2)CC1)c1ccc(F)cc1F (stereo not shown),-6.913,3.992,0.9874,10.2,1.026,10.91
O=C(c1ccncc1)N1CCN2C[C@H](Oc3cccnc3)C[C@H]2C1,4.399,3.756,-3.266,6.195,0.8,-

The first 2 entries again:

Result for COCC(=O)NC(Cc1cc(N(C)C)nc(C2CC2)n1)c1ccccc1 (stereo not shown) was ClpP1P2: -44.37%; PfKRS1: 0.439%; MtTrpRS: -2.388%; LiHisRS: 4.027%; TcHisRS: 0.8571%; Leishmania in macrophages: -5.125%.
Result for CC(=O)OCc1ccc(CN2CCCCCC2c2cc(C)no2)o1 (stereo not shown) was ClpP1P2: 20.5%; PfKRS1: -0.8205%; MtTrpRS: 22.12%; LiHisRS: 22.76%; TcHisRS: 6.844%; Leishmania in macrophages: 11.02%.

The values are deposited in ChEMBL (CHEMBL3988442, “University of Dundee, Small-Polar-MMV Screening Library” (2021)).